Data taken from PubChem BioAssay AID743255 (National Center for Advancing Translational Sciences (NCATS), 2014).
The whole screen tested about 390,000 compounds, of which about 910 (0.23%) were called active. The inconclusive results got no clear call from the source; some entries with a clear call stand among them for comparison. Calls follow the shape of the dose curve; as a rule, active = well fitted inhibition curve with a large enough effect; inconclusive = small, poorly fitted or top-dose-only effect; inactive = no such curve, though single readings can be large or run the other way. Where the call is inconclusive, the potency comes from a doubtful curve fit.

Amino acid sequences for entries named in this document (tags omitted). A change or cut given only in a name is not applied to a line headed by its entry.
UniProt O94782: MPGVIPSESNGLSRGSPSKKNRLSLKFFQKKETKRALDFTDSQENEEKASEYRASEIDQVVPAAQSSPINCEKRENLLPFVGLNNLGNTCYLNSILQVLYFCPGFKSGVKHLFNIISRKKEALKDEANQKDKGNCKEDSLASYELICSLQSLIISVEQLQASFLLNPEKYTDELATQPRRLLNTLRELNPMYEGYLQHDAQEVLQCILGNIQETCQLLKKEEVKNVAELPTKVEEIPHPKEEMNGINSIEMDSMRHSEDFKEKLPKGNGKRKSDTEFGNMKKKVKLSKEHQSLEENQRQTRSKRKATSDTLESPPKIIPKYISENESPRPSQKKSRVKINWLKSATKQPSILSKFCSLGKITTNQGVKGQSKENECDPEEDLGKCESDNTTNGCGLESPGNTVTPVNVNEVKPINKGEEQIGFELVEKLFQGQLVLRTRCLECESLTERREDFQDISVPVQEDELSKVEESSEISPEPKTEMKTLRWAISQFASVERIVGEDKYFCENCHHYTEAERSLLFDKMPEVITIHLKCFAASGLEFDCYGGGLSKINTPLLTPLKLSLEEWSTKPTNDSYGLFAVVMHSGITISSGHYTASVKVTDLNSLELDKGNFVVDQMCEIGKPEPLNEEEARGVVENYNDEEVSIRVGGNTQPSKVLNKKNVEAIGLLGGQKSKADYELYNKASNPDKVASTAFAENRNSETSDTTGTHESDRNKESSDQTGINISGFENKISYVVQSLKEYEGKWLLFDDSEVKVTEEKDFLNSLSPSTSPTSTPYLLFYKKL

target: Ubiquitin carboxyl-terminal hydrolase 1 (Homo sapiens) (UniProt O94782); assay: Inhibitors of USP1/UAF1: Primary Screen; settings: recombinant USP1/UAF1, Ub-Rhodamine cleavage fluorescence; series mostly up to 57.1 µM; also: nearly all actives have a fitted effect of over 60% in size
How it was run: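 Step one: compound is pinned into 1nM USP1/UAF1 in HEPES pH 7.8 buffer with TCEP. Step two: 15 min room-temperature incubation. Step three: Ub-Rho (150nM final) starts cleavage, tracked by fluorescence over six one-minute reads.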
Potency is read from the fitted curve at half-maximal effect.

Potency, inconclusive:
CC1CCCC(NC(=O)COC(=O)c2ccc([N+](=O)[O-])s2)C1C (configuration not stated) 35.5 µM [inhibitor, partial curve, poor fit]
CSc1ccccc1C(=O)N(C)C(c1ccccc1)c1ccccc1 2.24 µM [inhibitor, partial curve]
O=C(NCc1ccccc1F)c1sc2ncccc2c1-n1cccc1 11.2 µM [inhibitor, full curve, poor fit]
Cc1ccnc(SCC(=O)n2c3c(c4ccccc42)CC(C)CC3)n1 (configuration not stated) 39.8 µM [inhibitor, single point]
CN(CCOc1ccc(Br)cc1)C(=O)CNC(=O)c1ccc2ccccc2c1 44.7 µM [inhibitor, single point]
Cc1ccc(C(=O)c2sc(Nc3ccccc3)c(S(=O)(=O)c3ccccc3)c2N)c(C)c1 14.1 µM [inhibitor, partial curve]
OC(COc1ccccc1)CN(Cc1ccccc1)CC(O)COc1ccccc1 (configuration not stated) 35.5 µM [inhibitor, partial curve]
COc1cccc2c(C)cc3nnc(SCC(=O)Nc4ccc(C)cc4)n3c12 0.891 µM [inhibitor, full curve, poor fit]
O=C(CCCN1C(=O)/C(=C/c2ccccc2Cl)SC1=S)N1CCCC1 35.5 µM [inhibitor, partial curve]
O=C(Cn1cc(SCc2c(F)cccc2Cl)c2ccccc21)N1CCCCC1 0.316 µM [inhibitor, full curve, poor fit]
CC(c1ccco1)N(C(=O)COc1ccc(Cl)cc1Cl)c1ccccn1 (configuration not stated) 39.8 µM [inhibitor, single point]
COc1ccc(-c2sc3ccc(OC)cc3c2C#Cc2ccccn2)cc1 3.98 µM [inhibitor, full curve, poor fit]
O=c1[nH]ncc2c3ccccc3n(Cc3cccc(Cl)c3)c12 31.6 µM [inhibitor, partial curve, poor fit]
Cc1cc(Cl)ccc1OCC(=O)N(Cc1sccc1C)C1CCS(=O)(=O)C1 (configuration not stated) 0.891 µM [inhibitor, full curve, poor fit]

Quoted at random: two records from the list, in no set order.
Potency, inconclusive:
O=C(CCCN1C(=O)/C(=C/c2ccccc2Cl)SC1=S)N1CCCC1 35.5 µM [inhibitor, partial curve]
O=C(Cn1cc(SCc2c(F)cccc2Cl)c2ccccc21)N1CCCCC1 0.316 µM [inhibitor, full curve, poor fit]

Next part.

Potency, inactive:
COc1ccc(C)cc1NC(=O)C(C)N1CCOCC1 (configuration not stated)
Cc1noc2ncnc(N3CCN(c4ccc(F)cc4)CC3)c12
O=C1/C(=N\S(=O)(=O)c2cccs2)C([n+]2ccc(CCCc3ccccc3)cc2)=C([O-])c2ccccc21
